From US20260385973A1, “CARBON MONOXIDE PROBE MOLECULES” (published 2026)
“Also recorded” adds a separate entry of the source. Not every entry of the source has a single result; some have several. This list holds those alone. An entry can have further records. Values that stand side by side do not match, cause unknown; some may be repeats, others may stem from another dose, organism or construct than stated.

Legend:
[1] = test system: COHb; test: COHb level determination in CO-treated mouse blood ex vivo; details: CO-saturated blood from five mice, CO-oximeter
[2] = Conversion of probe to fluorescent product on reaction with CO; details: CO gas; PBS, or DMA diluted with PBS
[3] = Reaction of probe with thiol species (LC-MS, NMR); details: GSH or H2S (NaHS) in PBS, or NaHS (2 equivalents) in DMA

Molecule	COHb level of CO-saturated blood [1]	Conversion to fluorescent product / fluorescence recovery with CO [2]	Reaction with thiol species [3]
[C-]#[O+]	90% and about 90%		
(2-(butylcarbamoyl)-3-hydroxyphenyl)(N^1,N^1,N^2,N^2-tetramethylethylenediamine) palladacycle trifluoromethanesulfonate salt		the phthalimide fluorescent product 22 was formed as the major product; also recorded: the fluorescence intensity was the same as 22 at the same concentration	the depalladation species (17) was formed; also recorded: gave 17 as the major product
